Laboratory results taken from patent US20010035503A1, “Method and apparatus for non-invasive detection of angiogenic and anti-angiogenic activity in living tissue” (priority 2000, published 2001).
At least one compound was matched to its structure with a doubt left.

Test system: bFGF induced angiogenic response
Assay: anti-angiogenic activity in bFGF stimulated animals, LDF and NIRS recordings
Type: in vivo, mouse
Method: The apparatus as shown on FIG. 9 was tested in a mouse model with a controlled angiogenic response induced by local application of an angiogenic agent, basic fibroblast growth factor (bFGF). Parallel experiments were performed with identical setup in order to correlate the sensitivity of near infrared spectroscopy (NIRS) compared to laser doppler flowmetry (LDF) for estimation of angiogenic and anti-angiogenic responses.
A slow release pellet (Innovative Res.) containing 100 micrograms of bFGF released at a constant rate over 10 days was implanted under the skin at three different locations in the mouse. The angiogenic response to the active substance was evaluated in comparison with placebo pellets. […] Median values and interquartile range is shown.
The ability to detect anti-angiogenic properties of therapeutic agents in these preparations was tested in the same technical settings by comparing treated versus untreated animals.
FIGS. 3A and 3B show the anti-angiogenic activity after treatment with TNP-470 (7 mg/kg q.d.x7, n=13). […] LDF recordings were performed on day 6, whereas NIRS recordings were performed on day 7 after implantation. Median values and interquartile range is shown.

## C[C@@H]1C[C@H]2[C@@H]3CCC4=CC(=O)C=C[C@]4(C)[C@@]3(F)[C@@H](O)C[C@]2(C)[C@@]1(O)C(=O)CO [dexamethasone]
Compared to untreated bFGF stimulated animals, day 6, TNP-470 7 mg/kg q.d.x7 (p<0.05), dexamethasone 10 mg/kg q.d.x7 (p<0.001)
  LDF recordings: significantly lower
Compared to untreated bFGF stimulated animals, day 7, TNP-470 7 mg/kg q.d.x7 (p<0.05), dexamethasone 10 mg/kg q.d.x7 (p<0.001)
  NIRS recordings: significantly lower
Treated versus untreated animals
  anti-angiogenic activity: Significant anti-angiogenic activity
